According to publication PMC7470938:
These are yes or no findings as the source states them, for the method shown. Binding calls can cover weak binding; strength is not graded here.

Target: E. coli RecA(E38K) protein (E. coli)
Test: SPR; BIAcore T200, streptavidin chip; RecA(E38K) filaments assembled on immobilised biotinylated dsDNA; 0.65 uM pol IV injected for 220 s at 5 ul/min, then buffer; 20 C; 20 mM Tris-HCl pH 8.0, 10 mM KCl, 10 mM MgCl2, 0.005% surfactant P20, 0.5 mM dithiothreitol, 0.5 mM ATPgammaS; signal corrected with a flow cell without DNA and for the amount of immobilised RecA(E38K); both purified

binding: binds
B1: DNA polymerase IV (pol IV) (enzyme, UniProt Q47155 1-351)
chain: MRKIIHVDMDCFFAAVEMRDNPALRDIPIAIGGSRERRGVISTANYPARKFGVRSAMPTGMALKLCPHLTLLPGRFDAYKEASNHIREIFSRYTSRIEPLSLDEAYLDVTDSVHCHGSATLIAQEIRQTIFNELQLTASAGVAPVKFLAKIASDMNKPNGQFVITPAEVPAFLQTLPLAKIPGVGKVSAAKLEAMGLRTCGDVQKCDLVMLLKRFGKFGRILWERSQGIDERDVNSERLRKSVGVERTMAEDIHHWSECEAIIERLYPELERRLAKVKPDLLIARQGVKLKFDDFQQTTQEHVWPRLNKADLIATARKTWDERRGGRGVRLVGLHVTLLDPQMERQLVLGL
